The values that follow come from publication PMC12286604.

Sequences of proteins named here, by UniProt entry; tags and fusion partners are left off.
UniProt Q07812: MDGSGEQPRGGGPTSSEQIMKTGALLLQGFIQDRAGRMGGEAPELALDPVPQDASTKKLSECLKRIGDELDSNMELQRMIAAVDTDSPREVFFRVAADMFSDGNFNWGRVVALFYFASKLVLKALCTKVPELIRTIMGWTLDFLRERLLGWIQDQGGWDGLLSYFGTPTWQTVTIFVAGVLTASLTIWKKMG
UniProt Q07817: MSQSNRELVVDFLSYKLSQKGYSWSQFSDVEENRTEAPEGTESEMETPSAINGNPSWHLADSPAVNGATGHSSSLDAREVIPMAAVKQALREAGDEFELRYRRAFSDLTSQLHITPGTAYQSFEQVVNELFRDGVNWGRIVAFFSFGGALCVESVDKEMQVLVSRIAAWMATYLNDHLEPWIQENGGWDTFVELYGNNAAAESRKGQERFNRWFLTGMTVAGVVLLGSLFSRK
UniProt Q07820: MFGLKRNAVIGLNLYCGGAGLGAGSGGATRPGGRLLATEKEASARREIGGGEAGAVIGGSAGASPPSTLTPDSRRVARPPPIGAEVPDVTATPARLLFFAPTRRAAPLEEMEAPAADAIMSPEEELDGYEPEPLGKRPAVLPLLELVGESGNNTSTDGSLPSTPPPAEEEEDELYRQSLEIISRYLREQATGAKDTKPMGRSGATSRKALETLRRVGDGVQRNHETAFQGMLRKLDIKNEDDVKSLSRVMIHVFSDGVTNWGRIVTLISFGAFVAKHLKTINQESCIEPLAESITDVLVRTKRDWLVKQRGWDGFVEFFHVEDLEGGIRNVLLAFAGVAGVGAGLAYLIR
UniProt P10415: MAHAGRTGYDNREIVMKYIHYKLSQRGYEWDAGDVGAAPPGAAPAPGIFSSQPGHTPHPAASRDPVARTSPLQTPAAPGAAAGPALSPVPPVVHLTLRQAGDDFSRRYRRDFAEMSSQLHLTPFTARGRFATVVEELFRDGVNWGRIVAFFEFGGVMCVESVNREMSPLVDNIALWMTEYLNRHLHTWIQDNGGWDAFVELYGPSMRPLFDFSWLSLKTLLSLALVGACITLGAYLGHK

Experiment [1] deals with T1, WSB2 (WD repeat and SOCS box-containing protein 2), wild type, transfected, Q9NYS7.
T1 chain: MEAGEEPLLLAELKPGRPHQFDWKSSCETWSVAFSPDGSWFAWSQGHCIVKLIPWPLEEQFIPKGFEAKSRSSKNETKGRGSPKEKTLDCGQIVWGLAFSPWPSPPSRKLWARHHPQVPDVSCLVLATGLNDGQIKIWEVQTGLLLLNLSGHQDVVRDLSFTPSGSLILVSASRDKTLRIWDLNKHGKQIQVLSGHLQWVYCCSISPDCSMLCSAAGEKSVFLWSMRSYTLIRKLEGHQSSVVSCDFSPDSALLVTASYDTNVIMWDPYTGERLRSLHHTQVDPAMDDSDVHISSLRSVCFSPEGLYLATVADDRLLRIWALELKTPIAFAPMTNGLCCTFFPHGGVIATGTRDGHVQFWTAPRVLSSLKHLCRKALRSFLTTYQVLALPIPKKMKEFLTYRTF
Nature of the experiment: co-IP; semi-endogenous co-IP: anti-FLAG IP from 293T cells transfected with WSB2, endogenous partners detected by western blot. Conditions: remark: other sources report otherwise.

Experiment [2] addresses T2, WSB2 (WD repeat and SOCS box-containing protein 2), wild type, transfected (UniProt Q9NYS7).
T2 sequence: T1 chain
Nature of the experiment: co-IP; competition: synthetic C-terminal NOXA peptide (200 and 400 μg/ml, 12 hr) added to the anti-FLAG-bound WSB2-NOXA complex from transfected 293T cells; only the binder purified.

Experiment [3] addresses T2, WSB2 (WD repeat and SOCS box-containing protein 2), wild type, transfected. Put plainly: co-IP; semi-endogenous co-IP: anti-FLAG IP from 293T cells transfected with WSB2, endogenous partners detected by western blot.
The target of a further experiment is T3, BCL-W, transfected (UniProt Q92843).
T3 sequence: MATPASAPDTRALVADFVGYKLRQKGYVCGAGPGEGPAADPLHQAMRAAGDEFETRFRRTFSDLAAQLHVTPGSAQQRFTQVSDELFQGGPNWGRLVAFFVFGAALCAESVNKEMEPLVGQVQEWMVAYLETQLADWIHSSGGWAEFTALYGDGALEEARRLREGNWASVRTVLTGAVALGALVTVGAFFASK
Put plainly: co-IP; exogenous co-IP: anti-FLAG IP from whole-cell lysate of 293T cells transfected with plasmids for both partners, western blot; which partner bore FLAG is not given.

The target in the next experiment is BAX, transfected (UniProt Q07812). The description is as above.
Another experiment concerns the target BCL-XL, transfected (UniProt Q07817). Described as above.
The target in the next experiment is MCL-1, transfected (UniProt Q07820). The description is as above.
The target of the next experiment is T4, BAK, transfected (UniProt Q16611).
T4 sequence: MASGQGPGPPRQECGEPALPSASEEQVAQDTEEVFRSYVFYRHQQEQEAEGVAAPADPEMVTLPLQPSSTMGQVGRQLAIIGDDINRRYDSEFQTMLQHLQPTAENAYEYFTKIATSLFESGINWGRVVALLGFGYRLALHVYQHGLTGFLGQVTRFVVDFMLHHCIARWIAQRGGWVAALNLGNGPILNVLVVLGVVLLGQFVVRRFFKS
The description is as above.

Another experiment deals with BCL-2, transfected (UniProt P10415). The experiment is described as above.
For the next experiment, the target named is T5, BAD, transfected (UniProt Q92934).
T5 sequence: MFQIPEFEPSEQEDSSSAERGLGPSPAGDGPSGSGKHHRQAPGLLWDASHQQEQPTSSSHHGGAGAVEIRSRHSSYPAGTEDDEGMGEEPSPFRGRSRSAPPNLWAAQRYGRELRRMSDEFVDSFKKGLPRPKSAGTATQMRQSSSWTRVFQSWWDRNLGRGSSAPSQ
The experiment is described as above.

Experiment [4] deals with MCL-1, endogenous (human (endogenous in 293T)) (UniProt Q07820). Put plainly: co-IP; endogenous co-IP: IgG or anti-NOXA, anti-MCL-1, anti-BCL-2, anti-BCL-XL or anti-BAD antibodies, 293T whole-cell lysate, western blot.
Experiment [5] addresses BCL-2, endogenous (human (endogenous in 293T)) (UniProt P10415). The experiment is described as above.
The target in experiment [6] is T6, BAD, endogenous (human (endogenous in 293T)) (UniProt Q92934).
T6 sequence: T5 sequence
Described as above.

Experiment [7] deals with BCL-XL, endogenous (human (endogenous in 293T)) (UniProt Q07817). The description is as above.
Experiment [8] concerns the target T7, NOXA, endogenous (human (endogenous in 293T)), Q13794.
T7 chain: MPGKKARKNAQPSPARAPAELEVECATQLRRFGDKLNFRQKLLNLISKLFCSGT
Nature of the experiment: co-IP; endogenous co-IP with IgG or anti-NOXA from 293T cells treated 12 hr with the C-terminal cell-penetrating peptide of NOXA or the R8 peptide. The following applies: remark: other sources report otherwise.

Experiment [9] concerns the target T7, NOXA, endogenous (human (endogenous in …)). Put plainly: co-IP; endogenous co-IP: IgG or anti-NOXA, anti-MCL-1, anti-BCL-2, anti-BCL-XL or anti-BAD antibodies, 293T whole-cell lysate, western blot. The following applies: remark: other sources report otherwise.
Experiment [10] has as its target T8, NOXA, wild type, transfected, Q13794.
T8 chain: T7 chain
Nature of the experiment: co-IP; WSB2-NOXA complex co-immunoprecipitated by anti-FLAG antibody from transfected 293T cells, then the bound complex incubated 12 hr with C-terminal NOXA peptide (200 and 400 μg/ml) or scramble peptide; bound material by western blot. The following applies: remark: other sources report otherwise.

For experiment [11] the target is unchanged. Put plainly: co-IP; exogenous co-IP: anti-FLAG IP from whole-cell lysate of 293T cells transfected with plasmids for both partners, western blot; which partner bore FLAG is not given. The following applies: remark: other sources report otherwise.
Experiment [12] concerns the target T9, WSB2, endogenous (human (endogenous in 293T)) (UniProt Q9NYS7).
T9 sequence: T1 chain
Nature of the experiment: co-IP; competition in cells: 293T cells treated 12 hr with the synthetic C-terminal cell-penetrating peptide of NOXA or R8 peptide, then IP with IgG or anti-NOXA; only the binder purified.

Results are given in words; binding and its absence hold for the method and conditions named. Binding seen in cells or lysates may run through a third protein. Some entries that bind do so weakly or less than the wild type.

B1: NOXA, endogenous, Q13794 1-54 (protein)
chain: T7 chain
Regarding B1, in experiment [1], the binding result was “binds”.

As for QKLLNLISKLFCSGT (peptide, UniProt Q13794 40-54) [C-terminal NOXA peptide (40-54 aa)], the binding entry in experiment [2] is “binds”.

B2: BAD, endogenous (protein, UniProt Q92934 1-168)
chain: T5 sequence
Take B2: the binding entry in [3] was “binds”.

B3: WSB2 (WD repeat and SOCS box-containing protein 2), wild type, transfected (protein, UniProt Q9NYS7 1-404)
chain: T1 chain
Take B3: the binding entry was “no binding” with BCL-W, transfected; “no binding” with BAX, transfected; “binds” with BCL-XL, transfected; “binds” in the experiment with MCL-1, transfected; “no binding” with BAK, transfected; “binds” with BCL-2, transfected. In addition, the binding entry in the experiment with BAD, transfected is recorded as “binds”.

B4: WSB2, endogenous (protein, UniProt Q9NYS7 1-404)
chain: T1 chain
In the case of B4, the binding entry in experiment [4], in [5], in [6] and in [7] was “binds” in each case.

B5: WSB2, endogenous, Q9NYS7 1-404 (protein)
chain: T1 chain
B5: the binding result in experiment [8] and in [9] was “binds” throughout.

B6: WSB2 (WD repeat and SOCS box-containing protein 2), wild type, transfected, Q9NYS7 1-404 (protein)
chain: T1 chain
In the case of B6, the binding entry in experiment [10] and in experiment [11] was “binds” each time.

For the molecule RRRRRRRRQKLLNLISKLFCSGT (peptide, UniProt Q13794 40-54) [C-terminal cell-penetrating peptide of NOXA (C-terminal NOXA peptide connected to poly-arginine R8)], the binding entry in [12] is reported as “binds”.
